Measured values from patent publication US12613249B2 (THE ROYAL INSTITUTION FOR THE ADVANCEMENT OF LEARNING / …, priority 2019, dated 2026).
Not every detail of the peptide structures is certain; ends, links or a residue may be inferred. Square brackets hold non-standard residues; d marks the D form. Peptide text beside a SMILES is read from it.

Amino acid sequences for entries named in this document (tags omitted). Residues count along the entry.
UniProt P05067, 672-713 limits assumed: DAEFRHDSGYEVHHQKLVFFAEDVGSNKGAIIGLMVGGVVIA

What was measured:
[1] = molecular target: T1, Aβ42 (Homo sapiens, UniProt P05067); assay: ThT fluorescence assay of Aβ42 aggregation; assay type: biochemical
T1 construct: Freshly monomerized synthetic Aβ42 peptide was dissolved as previously described above; purchased Bachem peptides, Germany; host or cells: chemical synthesis

[2] = molecular target: T1, Aβ42; assay: TEM and MALDI-TOF MS of Aβ42 aggregates; assay type: biochemical

C[C@H](O)[C@@H](NC(=O)CNC(=O)[C@H](N)CCCNC(=N)N)C(=O)N[C@H](Cc1ccccc1)C(=O)N[C@H](CCC(=O)O)C(=O)NCC(=O)N[C@H](CCCCN)C(=O)N[C@H](Cc1ccccc1)C(=O)O [D-AIP] (H-[dR]G[dT][dF][dE]G[dK][dF]-OH; N-terminus and C-terminus assumed)
ThT fluorescence, freshly monomerized Aβ42 co-incubated ([1]; D-AIP:Aβ42 1:1, 1:4, 1:10, room temperature): significantly reduced the fluorescence to the same extent over approximately 10 h at all molar D-AIP:Aβ42 ratios tested
ThT fluorescence, Aβ42 pre-aggregated for 24 h ([1]; monitored for another 24 h): led to a decrease in the ThT fluorescence
binding to Aβ42 oligomers ([2]; MALDI-TOF MS of Aβ42 co-incubated with D-AIP): direct binding of D-AIP not only to tetramers but also to pentamers and hexamers of Aβ42
fibril maturation, freshly monomerized Aβ42 ([2]; TEM, 24 h): fibril maturation was inhibited
fibril width ([2]; TEM, pre-aggregated Aβ42 with D-AIP between 24 h and 48 h): approx. 18 nm
